{"source": "PubChem BioAssay AID1259405 (NCATS, 2018)", "test": "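Silenced genes that increase secreted GFP made by CHO cells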 (primary screen)", "cells": "Chinese hamster CHO-K1 ovary cells with stable secreted eGFP expression", "reagent": "single siRNA against mouse genes, 0.8 pmol siRNA per well (2 µl of 400 nM stock)", "duration": "3 days", "measured": "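Percent of the per-plate non-targeting control median for intracellular GFP per well by laser scanning cytometry and for cell viability by ATP luminescence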", "direction": "GFP, % of control: higher = more GFP per well, higher productivity; viability (ATP), % of control: higher = more viable cells (more ATP)", "call rule": "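Called active when intracellular GFP, relative to negative control, is at or above 120%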", "note": "Shown is an unselected part of about 50,000 reagents tested. About 4,000 of all reagents (8%) count as active. 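Mouse siRNA library applied to hamster cells; one well for each siRNA.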 The numbers tell different reagents against one gene apart."}
{"gene":"Vrtn (vertebrae development associated)","siRNA no.":1,"GFP, % of control":116,"viability (ATP), % of control":62.6,"outcome":"inactive"}
{"gene":"Vrtn (vertebrae development associated)","siRNA no.":2,"GFP, % of control":78.1,"viability (ATP), % of control":95.1,"outcome":"inactive"}
{"gene":"Vrtn (vertebrae development associated)","siRNA no.":3,"GFP, % of control":82.2,"viability (ATP), % of control":83.3,"outcome":"inactive"}
{"gene":"Cmklr2 (chemerin chemokine-like receptor 2)","siRNA no.":1,"GFP, % of control":46.8,"viability (ATP), % of control":30.6,"outcome":"inactive"}
{"gene":"Cmklr2 (chemerin chemokine-like receptor 2)","siRNA no.":2,"GFP, % of control":72.8,"viability (ATP), % of control":60,"outcome":"inactive"}
{"gene":"Cmklr2 (chemerin chemokine-like receptor 2)","siRNA no.":3,"GFP, % of control":69.8,"viability (ATP), % of control":61.1,"outcome":"inactive"}
{"gene":"Nudt4 (nudix hydrolase 4)","siRNA no.":1,"GFP, % of control":54.4,"viability (ATP), % of control":29.5,"outcome":"inactive"}
{"gene":"Nudt4 (nudix hydrolase 4)","siRNA no.":2,"GFP, % of control":76.4,"viability (ATP), % of control":101,"outcome":"inactive"}
{"gene":"Nudt4 (nudix hydrolase 4)","siRNA no.":3,"GFP, % of control":69.5,"viability (ATP), % of control":72.4,"outcome":"inactive"}
{"gene":"Adam34 (a disintegrin and metallopeptidase domain 34)","siRNA no.":1,"GFP, % of control":74.3,"viability (ATP), % of control":69.4,"outcome":"inactive"}
{"gene":"Adam34 (a disintegrin and metallopeptidase domain 34)","siRNA no.":2,"GFP, % of control":66.9,"viability (ATP), % of control":47.5,"outcome":"inactive"}
{"gene":"Adam34 (a disintegrin and metallopeptidase domain 34)","siRNA no.":3,"GFP, % of control":74.3,"viability (ATP), % of control":94.6,"outcome":"inactive"}
{"gene":"Mzf1 (myeloid zinc finger 1)","siRNA no.":1,"GFP, % of control":30.8,"viability (ATP), % of control":47.8,"outcome":"inactive"}
{"gene":"Mzf1 (myeloid zinc finger 1)","siRNA no.":2,"GFP, % of control":55.2,"viability (ATP), % of control":95.9,"outcome":"inactive"}
{"gene":"Fads2 (fatty acid desaturase 2)","siRNA no.":1,"GFP, % of control":110,"viability (ATP), % of control":135,"outcome":"inactive"}
{"gene":"Fads2 (fatty acid desaturase 2)","siRNA no.":2,"GFP, % of control":83.9,"viability (ATP), % of control":68.7,"outcome":"inactive"}
{"gene":"Prm1 (protamine 1)","siRNA no.":1,"GFP, % of control":66.3,"viability (ATP), % of control":53,"outcome":"inactive"}
{"gene":"Prm1 (protamine 1)","siRNA no.":2,"GFP, % of control":68.1,"viability (ATP), % of control":42,"outcome":"inactive"}
{"gene":"Prm1 (protamine 1)","siRNA no.":3,"GFP, % of control":59.8,"viability (ATP), % of control":69.4,"outcome":"inactive"}
{"gene":"Nucleolin (nucleolin multifunctional protein)","siRNA no.":1,"GFP, % of control":94.4,"viability (ATP), % of control":70,"outcome":"inactive"}
{"gene":"Nucleolin (nucleolin multifunctional protein)","siRNA no.":2,"GFP, % of control":73.6,"viability (ATP), % of control":55.9,"outcome":"inactive"}
{"gene":"Nucleolin (nucleolin multifunctional protein)","siRNA no.":3,"GFP, % of control":89.2,"viability (ATP), % of control":82.7,"outcome":"inactive"}
{"gene":"Tomm22 (translocase of outer mitochondrial membrane 22)","siRNA no.":1,"GFP, % of control":51.4,"viability (ATP), % of control":71.1,"outcome":"inactive"}
{"gene":"Tomm22 (translocase of outer mitochondrial membrane 22)","siRNA no.":2,"GFP, % of control":71.1,"viability (ATP), % of control":65,"outcome":"inactive"}
{"gene":"Tomm22 (translocase of outer mitochondrial membrane 22)","siRNA no.":3,"GFP, % of control":54.2,"viability (ATP), % of control":66.1,"outcome":"inactive"}
{"gene":"Adra1b (adrenergic receptor, alpha 1b)","siRNA no.":1,"GFP, % of control":147,"viability (ATP), % of control":66.5,"outcome":"active"}
{"gene":"Adra1b (adrenergic receptor, alpha 1b)","siRNA no.":2,"GFP, % of control":108,"viability (ATP), % of control":71,"outcome":"inactive"}
{"gene":"Adra1b (adrenergic receptor, alpha 1b)","siRNA no.":3,"GFP, % of control":61.9,"viability (ATP), % of control":57,"outcome":"inactive"}
{"gene":"Emc4 (ER membrane protein complex subunit 4)","siRNA no.":1,"GFP, % of control":113,"viability (ATP), % of control":86.2,"outcome":"inactive"}
{"gene":"Emc4 (ER membrane protein complex subunit 4)","siRNA no.":2,"GFP, % of control":132,"viability (ATP), % of control":92.1,"outcome":"active"}
{"gene":"Emc4 (ER membrane protein complex subunit 4)","siRNA no.":3,"GFP, % of control":78.5,"viability (ATP), % of control":78.3,"outcome":"inactive"}
{"gene":"Cisd2 (CDGSH iron sulfur domain 2)","siRNA no.":1,"GFP, % of control":84,"viability (ATP), % of control":85,"outcome":"inactive"}
{"gene":"Cisd2 (CDGSH iron sulfur domain 2)","siRNA no.":2,"GFP, % of control":89.5,"viability (ATP), % of control":93.9,"outcome":"inactive"}
{"gene":"Cisd2 (CDGSH iron sulfur domain 2)","siRNA no.":3,"GFP, % of control":95.1,"viability (ATP), % of control":64.3,"outcome":"inactive"}
{"gene":"Hoxc13 (homeobox C13)","siRNA no.":1,"GFP, % of control":112,"viability (ATP), % of control":113,"outcome":"inactive"}
{"gene":"Hoxc13 (homeobox C13)","siRNA no.":2,"GFP, % of control":85,"viability (ATP), % of control":81,"outcome":"inactive"}
{"gene":"Hoxc13 (homeobox C13)","siRNA no.":3,"GFP, % of control":42.2,"viability (ATP), % of control":35.1,"outcome":"inactive"}
{"gene":"Tbc1d15 (TBC1 domain family, member 15)","siRNA no.":1,"GFP, % of control":89.4,"viability (ATP), % of control":80.4,"outcome":"inactive"}
{"gene":"Tbc1d15 (TBC1 domain family, member 15)","siRNA no.":2,"GFP, % of control":111,"viability (ATP), % of control":89.6,"outcome":"inactive"}
{"gene":"Tbc1d15 (TBC1 domain family, member 15)","siRNA no.":3,"GFP, % of control":70.2,"viability (ATP), % of control":64.5,"outcome":"inactive"}
{"gene":"Cyp2s1 (cytochrome P450, family 2, subfamily s, polypeptide 1)","siRNA no.":1,"GFP, % of control":83.1,"viability (ATP), % of control":70,"outcome":"inactive"}
{"gene":"Cyp2s1 (cytochrome P450, family 2, subfamily s, polypeptide 1)","siRNA no.":2,"GFP, % of control":106,"viability (ATP), % of control":107,"outcome":"inactive"}
{"gene":"Cyp2s1 (cytochrome P450, family 2, subfamily s, polypeptide 1)","siRNA no.":3,"GFP, % of control":67.5,"viability (ATP), % of control":74.8,"outcome":"inactive"}
{"gene":"Mbtps1 (membrane-bound transcription factor peptidase, site 1)","siRNA no.":1,"GFP, % of control":75.9,"viability (ATP), % of control":86.7,"outcome":"inactive"}
{"gene":"Mbtps1 (membrane-bound transcription factor peptidase, site 1)","siRNA no.":2,"GFP, % of control":140,"viability (ATP), % of control":101,"outcome":"active"}
{"gene":"Mbtps1 (membrane-bound transcription factor peptidase, site 1)","siRNA no.":3,"GFP, % of control":48.4,"viability (ATP), % of control":60.1,"outcome":"inactive"}
{"gene":"Ndufs7 (NADH:ubiquinone oxidoreductase core subunit S7)","siRNA no.":1,"GFP, % of control":82.4,"viability (ATP), % of control":91.3,"outcome":"inactive"}
{"gene":"Ndufs7 (NADH:ubiquinone oxidoreductase core subunit S7)","siRNA no.":2,"GFP, % of control":50.1,"viability (ATP), % of control":82.7,"outcome":"inactive"}
{"gene":"Ndufs7 (NADH:ubiquinone oxidoreductase core subunit S7)","siRNA no.":3,"GFP, % of control":95.8,"viability (ATP), % of control":91.9,"outcome":"inactive"}
{"gene":"Slc13a3","siRNA no.":1,"GFP, % of control":47.1,"viability (ATP), % of control":57.8,"outcome":"inactive"}
{"gene":"Slc13a3","siRNA no.":2,"GFP, % of control":50.6,"viability (ATP), % of control":36.6,"outcome":"inactive"}
{"gene":"Slc13a3","siRNA no.":3,"GFP, % of control":118,"viability (ATP), % of control":101,"outcome":"inactive"}

Entries listed so far whose target name begins with C or c:
{"gene":"Cmklr2 (chemerin chemokine-like receptor 2)","siRNA no.":1,"GFP, % of control":46.8,"viability (ATP), % of control":30.6,"outcome":"inactive"}
{"gene":"Cmklr2 (chemerin chemokine-like receptor 2)","siRNA no.":2,"GFP, % of control":72.8,"viability (ATP), % of control":60,"outcome":"inactive"}
{"gene":"Cmklr2 (chemerin chemokine-like receptor 2)","siRNA no.":3,"GFP, % of control":69.8,"viability (ATP), % of control":61.1,"outcome":"inactive"}
{"gene":"Cisd2 (CDGSH iron sulfur domain 2)","siRNA no.":1,"GFP, % of control":84,"viability (ATP), % of control":85,"outcome":"inactive"}
{"gene":"Cisd2 (CDGSH iron sulfur domain 2)","siRNA no.":2,"GFP, % of control":89.5,"viability (ATP), % of control":93.9,"outcome":"inactive"}
{"gene":"Cisd2 (CDGSH iron sulfur domain 2)","siRNA no.":3,"GFP, % of control":95.1,"viability (ATP), % of control":64.3,"outcome":"inactive"}
{"gene":"Cyp2s1 (cytochrome P450, family 2, subfamily s, polypeptide 1)","siRNA no.":1,"GFP, % of control":83.1,"viability (ATP), % of control":70,"outcome":"inactive"}
{"gene":"Cyp2s1 (cytochrome P450, family 2, subfamily s, polypeptide 1)","siRNA no.":2,"GFP, % of control":106,"viability (ATP), % of control":107,"outcome":"inactive"}
{"gene":"Cyp2s1 (cytochrome P450, family 2, subfamily s, polypeptide 1)","siRNA no.":3,"GFP, % of control":67.5,"viability (ATP), % of control":74.8,"outcome":"inactive"}
